Assay results from patent US12558367B2, “Nicotinamide riboside and derivatives thereof in intravenous formulations and methods of use thereof” (ChromaDex Inc., priority 2023, dated 2026).
At least one structure is not confirmed: it was looked up by name or label, or the drawing left a doubt.

Experiment: Tolerable infusion rate / infusion duration, Study 1
Assay type: in vivo, human
Details: minimum to maximum
Method: Vials of 50 mg/ml of NR or NAD+ were prepared in 10 ml of sterile water by DCA Pharmacy (Franklin, Tennessee) by prescription, for research administration only, and maintained in refrigerated conditions until use. For participants who were randomized to the test group or to the active comparator group, the NR or NAD+ was added to 500 ml of normal saline (B Braun 0.9% sodium chloride injection USP, preservative free) prior to intravenous administration. Those randomly assigned to the saline group received 500 ml of normal saline. Participants that were randomly assigned to the oral arm were provided with 500 mg of NR which was taken with water.
In the first study, participants began the infusion at a rate of 20 drops per minute for the first 15 minutes to ensure safety and comfort. […] Participants were closely monitored for the duration of the infusion, and the infusion rate was decreased, as applicable, upon participant request.
Additional analyses were conducted using GraphPad Prism (Ver. 10.0.2). Statistical significance was determined as p<0.05, with comparisons of the test articles compared to saline or between group comparisons. […] Time in chair was analyzed for study 1 by a one-way ANOVA with multiple comparisons, study 2 was analyzed by unpaired t-test. The baseline variable of age was analyzed for differences by one way ANOVA with multiple comparisons for study.

## NC(=O)c1ccc[n+]([C@@H]2O[C@H](COP(=O)([O-])OP(=O)(O)OC[C@H]3O[C@@H](n4cnc5c(N)ncnc54)[C@H](O)[C@@H]3O)[C@@H](O)[C@H]2O)c1 [NAD+ IV, Nicotinamide Adenine Dinucleotide]
  infusion intake, range: 1 hour and 47 minutes to 4 hours 32 minutes
